In doi:10.1101/2024.06.17.598829 (bioRxiv, 2024):
These are yes or no findings as the source states them, for the method shown. Binding seen in cells or lysates may run through a third protein. A yes stands for co-enrichment or nearness to the bait. Other partners may have been found. No binding means not detected with the bait. Tags and fused reporters may be left off the sequences shown.

Target: T1, GFP:NPH3 expressed in Arabidopsis nph3-7 seedlings (Arabidopsis thaliana) (UniProt Q9FMF5)
T1 sequence: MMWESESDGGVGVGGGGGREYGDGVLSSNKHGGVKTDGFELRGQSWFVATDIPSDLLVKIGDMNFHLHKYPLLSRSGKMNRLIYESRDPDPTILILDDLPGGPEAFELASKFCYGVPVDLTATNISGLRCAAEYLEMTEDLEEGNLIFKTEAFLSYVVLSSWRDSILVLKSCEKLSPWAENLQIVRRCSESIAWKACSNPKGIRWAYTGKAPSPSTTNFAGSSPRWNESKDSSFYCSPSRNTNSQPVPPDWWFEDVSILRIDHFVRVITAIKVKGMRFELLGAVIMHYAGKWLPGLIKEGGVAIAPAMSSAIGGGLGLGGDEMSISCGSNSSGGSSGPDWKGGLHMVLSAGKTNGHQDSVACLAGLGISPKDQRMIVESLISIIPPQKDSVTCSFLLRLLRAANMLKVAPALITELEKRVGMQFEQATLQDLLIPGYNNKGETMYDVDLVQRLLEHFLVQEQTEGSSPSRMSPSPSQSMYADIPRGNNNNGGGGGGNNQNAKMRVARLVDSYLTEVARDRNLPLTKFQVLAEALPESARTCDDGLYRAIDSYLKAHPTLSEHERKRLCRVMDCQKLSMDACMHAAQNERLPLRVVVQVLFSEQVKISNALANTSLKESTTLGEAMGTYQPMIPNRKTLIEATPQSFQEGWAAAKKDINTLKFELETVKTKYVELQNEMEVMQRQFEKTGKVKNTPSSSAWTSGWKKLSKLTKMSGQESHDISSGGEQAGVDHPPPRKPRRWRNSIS
Assay: affinity purification with mass spectrometry

- binding: no binding
Substance: CULLIN3
